In publication doi:10.1101/2023.03.22.533738:
Results are given in words; binding and its absence hold for the method and conditions named. In cells and extracts the contact can be indirect. Some results given as binding are weak or reduced against the parent protein; the word gives no strength. For part of these data: Sequences can lack the tags named with a protein. Blank lines part the entries; values can stand above or below the molecule they belong to.

Chains of the proteins cited; added tags and fusions are not shown.
UniProt Q13164: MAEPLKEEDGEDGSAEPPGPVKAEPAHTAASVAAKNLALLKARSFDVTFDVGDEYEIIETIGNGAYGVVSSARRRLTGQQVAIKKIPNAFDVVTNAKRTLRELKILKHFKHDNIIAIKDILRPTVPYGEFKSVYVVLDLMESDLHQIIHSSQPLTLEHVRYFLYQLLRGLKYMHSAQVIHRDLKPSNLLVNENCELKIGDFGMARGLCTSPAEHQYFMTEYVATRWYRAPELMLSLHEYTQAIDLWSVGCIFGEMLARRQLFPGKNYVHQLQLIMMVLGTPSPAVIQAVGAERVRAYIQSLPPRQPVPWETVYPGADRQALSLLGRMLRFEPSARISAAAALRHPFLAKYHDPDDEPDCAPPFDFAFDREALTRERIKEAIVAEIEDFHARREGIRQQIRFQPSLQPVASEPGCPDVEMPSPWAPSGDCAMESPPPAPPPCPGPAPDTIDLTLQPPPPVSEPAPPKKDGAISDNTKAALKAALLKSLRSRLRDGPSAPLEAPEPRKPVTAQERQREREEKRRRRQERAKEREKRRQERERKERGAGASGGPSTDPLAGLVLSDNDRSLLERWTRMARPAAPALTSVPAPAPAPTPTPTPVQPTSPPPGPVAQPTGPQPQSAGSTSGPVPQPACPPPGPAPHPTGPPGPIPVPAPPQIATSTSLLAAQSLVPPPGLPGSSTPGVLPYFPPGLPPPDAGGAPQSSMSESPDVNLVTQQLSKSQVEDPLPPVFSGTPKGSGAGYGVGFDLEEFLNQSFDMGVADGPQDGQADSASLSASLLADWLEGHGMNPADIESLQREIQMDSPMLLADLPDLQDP
UniProt Q14790: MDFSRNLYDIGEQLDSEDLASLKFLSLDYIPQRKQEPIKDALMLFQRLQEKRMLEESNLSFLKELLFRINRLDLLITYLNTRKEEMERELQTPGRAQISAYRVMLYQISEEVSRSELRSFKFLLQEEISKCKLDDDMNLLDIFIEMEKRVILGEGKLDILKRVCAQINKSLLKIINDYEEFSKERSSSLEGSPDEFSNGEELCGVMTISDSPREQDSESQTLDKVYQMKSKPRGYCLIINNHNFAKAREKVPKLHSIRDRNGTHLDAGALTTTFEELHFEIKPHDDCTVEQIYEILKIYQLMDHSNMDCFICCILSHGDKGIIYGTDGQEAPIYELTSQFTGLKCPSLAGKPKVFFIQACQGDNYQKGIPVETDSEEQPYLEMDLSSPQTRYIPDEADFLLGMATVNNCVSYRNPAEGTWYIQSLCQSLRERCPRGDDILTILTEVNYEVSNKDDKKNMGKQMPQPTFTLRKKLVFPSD

Columns and labels:
Test in all cases: co-IP
[1] = biological target: T1, FLAG-tagged TP53INP2 (human, wild type) (human) (UniProt Q8IXH6)
T1 sequence: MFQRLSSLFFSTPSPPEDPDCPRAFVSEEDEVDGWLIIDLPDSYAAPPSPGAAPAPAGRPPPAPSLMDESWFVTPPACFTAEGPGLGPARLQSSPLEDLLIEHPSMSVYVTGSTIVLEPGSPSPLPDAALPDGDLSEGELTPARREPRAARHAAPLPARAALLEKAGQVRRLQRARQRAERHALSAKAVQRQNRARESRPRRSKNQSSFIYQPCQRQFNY

[2] = biological target: MAP kinase ERK5 (endogenous) (human (endogenous in Ishikawa)) (UniProt Q13164)
[3] = biological target: GST-tagged human ERK5 (WT) (human) (UniProt Q13164)

binding [1]: binds
Molecule: Caspase-8 (from UniProt Q14790 1-479) (enzyme)

binding [2]: binds
B1: TP53INP2 (endogenous) (protein, UniProt Q8IXH6 1-220)
chain: T1 sequence

binding [3]: binds
B2: FLAG-tagged TP53INP2 (human, wild type) (protein, UniProt Q8IXH6 1-220)
chain: T1 sequence
